This note sets out measurements from PubChem BioAssay AID1508600 (Functional Genomics Laboratory (NCATS/FGL), 2020).

About 3,700 (7%) of roughly 53,000 sequences were called active.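 How the source made its calls: active means gene knockdowns whose robust z-score for IL-1 alpha signal is at least 2 or at most -2, so actives lie on both sides; inactive means the rest.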 The list shows a part of the results.

The test can be described thus: Components of the Cytosolic LPS Sensing Pathway: Gene Identification via Genome-wide siRNA Screen.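 Further: robust z of the log signal after scaling to non-targeting control siRNA wells of the plate.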 The following applies: RAW264.7 macrophages, IL-1a HTRF, actives lie on both sides, screened at 100 nM (by protocol), cells primed 5 h with Pam3CSK4 first. Put shortly:
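RAW264.7; siRNA 100 nM final, RNAiMAX, 48h 37 degrees C; Pam3CSK4 5 h; LipidA + TransIT-TKO 24 h; IL-1a HTRF; CellTiter-Glo viability; robust z vs negative-control median.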
In general terms: Time-resolved FRET reads energy transfer from a long-lived donor to a nearby acceptor.
GGGUUUUAUCUGUAGUACATT against Gon4l: the z-score is inactive: 1.96.

With CCAUUGUGUUAAUUCAUGGTT against Kcnj15, the z-score was inactive: 0.644.

As to GCCUCGAUUCACCAAGUGUTT against Ghr, the z-score is inactive: -0.663.

Turning to GGUGUGGAUCUUUCGUAAUTT against Il1f9, the z-score was inactive: 0.696.

As to GCACAUGGUUAUGGUGAAATT against Cd200r1, the z-score was inactive: 0.108.

Turning to GGAGUUCUUUCAGACCUUATT against Cidea, the z-score is inactive: -0.414.

For the sequence GGGCAGCAUUUUUCUGAUATT against Mfap3, the z-score was inactive: 0.196.

Consider GGCUUUAAGACAUAGUACUTT against Lbh, for which the z-score was inactive: 1.53.

Take GGAGCUGACAGACUUCCUGTT against Fosl1: the z-score was inactive: -1.51.

GGAAUGGACCGGGUUCAUCTT against Fktn: the z-score is inactive: -0.318.

Regarding GGAAUUUUCUACAUGUGUGTT against Lim2, the z-score was active: -2.12.

As for GGAAAGAAACUUAAAGUGGTT against Tfdp1, the z-score was active: 2.64.

With GGACUUUGGACUUUCUAUUTT against Mettl16, the z-score is inactive: -1.07.

GGAUCACAACAAAAUAUCCTT against Gm6288: the z-score is inactive: 1.49.

Take GAAACUCUGUGAAUAUAACTT against Zfp97: the z-score was inactive: 0.633.

On to GCCAACAAAGUGAUCGAAGTT against Fkbp10, for which the z-score was inactive: 0.175.

In the case of GGACAUCCAUCAUUACUUUTT against Slc26a2, the z-score was inactive: -0.136.

In the case of CGGGAUUCUAAAAAAAGUGTT against Hibadh, the z-score was inactive: 0.296.

As for GCAAAGUGGUUAUUUGAAATT against Xirp2, the z-score is inactive: 0.00987.

GCCUGUUACAGGAAUCAGGTT against Mex3a: the z-score was inactive: 1.76.

CGGACGGCAGAAGAAAAAGTT against Zfp652: the z-score was inactive: 0.674.

For the sequence GGGAUGGCCUUUGGUUAAATT against Vmn1r203, the z-score was inactive: -0.133.

With GGGUCUGUCAAGAUUGACATT against Fsip1, the z-score was inactive: -1.36.

As for GGCCCAAGAGAAUAUCCAGTT against Gm6460, the z-score is inactive: 0.281.

Consider GGGAUUUUGUGAUGUCCGCTT against Mmp23, for which the z-score was inactive: 0.422.

Regarding GCUAAGACAGAACUCUUCUTT against Nap1l5, the z-score is active: 3.14.

GGUGGAGUUAGAAAACUACTT against BC048679: the z-score was inactive: -0.341.

As for “CCCUUAAUGAGACAAGGCATT against A630023P12Rik”, the z-score is inactive: 0.0231.

For GGAAGAUGAGGAGAAAGACTT against Rin3, the z-score was inactive: -1.07.

Take GGAGGCAUGCCCUAUGAAUTT against Zfp11: the z-score is inactive: 1.4.

As to GGAGCUGUGCGGUCUGUUATT against Mul1, the z-score is inactive: -0.626.

For the sequence GGGCAGCUGGUCAAAAGUCTT against Nars2, the z-score was inactive: -0.0638.

As for GGAAAACCACAAAACAUGATT against Muc20, the z-score was inactive: -0.33.

Take CCCGUCUCUUAAUCUGUUGTT against Ptprr: the z-score was inactive: -0.774.

For GGAAGCCGAGAAUACAGCATT against Wdr44, the z-score was inactive: -0.806.

As to GCAGCUCCUUUAUACCCACTT against Mxra7, the z-score is inactive: -1.25.

Turning to CCAGAAACUCGCAUAUCACTT against Tmem184b, the z-score was inactive: -0.294.

For the sequence GGAUGACACCAAGAAAUAUTT against Rtl5, the z-score was inactive: 0.0144.

Consider GGACAUUGCCCACAUGACCTT against Rnf227, for which the z-score was inactive: -0.15.

Regarding GCUAGAGACUGUUUGCACGTT against E2f8, the z-score is inactive: 0.256.

Take CCCAACAUAUUUUUUAGCATT against Hmgcll1: the z-score is inactive: -0.506.

For the sequence CCACUGUUACCAUUAUAAUTT against Pramel4, the z-score was inactive: -0.594.

GGCAUGAGGUUCAAGAUUUTT against Hsd17b6: the z-score is inactive: -0.0961.

As to CGCGAACUCUCCCUUACUUTT against Mgat4e, the z-score was inactive: -0.522.

In the case of GGCUUUUUCCUAAACUUGGTT against Nt5c, the z-score was inactive: 1.19.

Regarding GGCCUAUUUUUUCAUAGUUTT against Ptprs, the z-score was inactive: 0.0729.

GGUGCUGCUAUUCCUGCACTT against Gpam: the z-score was active: -2.03.

For GGUUCAGCAGUUGUCUGAGTT against Ccdc172, the z-score is inactive: 0.159.

For GGUAGAAUACGUGUUCCUGTT against Cacna1f, the z-score was active: 2.79.

GGAUAACGAUCCUUUUGACTT against Prss21: the z-score was inactive: -0.547.

For the sequence GCUAUAAGGAAAGAGUAGCTT against Taar9, the z-score was inactive: 0.285.

Consider GGUCUUUAGGUGCUAAAGATT against Pheta2, for which the z-score was inactive: 1.21.

Regarding GCAAAGUGAAUAAGUUCUGTT against Fryl, the z-score is inactive: -0.896.

In the case of GCUCACAUGUUUUAGGUGATT against Poc5, the z-score is inactive: 0.756.

With GGAAAAUCUACAUUCCCUUTT against Ncstn, the z-score was inactive: 1.07.

In the case of GGAGAAGAAAAAGCGGUACTT against Plxnb2, the z-score is active: 2.71.

For GGCACCAUACUGGACAUACTT against Chpt1, the z-score was inactive: -0.115.

On to GCCUCUCCCUACGGUAAAUTT against Oxsm, for which the z-score was inactive: 0.457.

GGAAGAGUUGGAGAAAAUUTT against Tex46: the z-score was inactive: 2.

Take GGCGCAUAGCAUUUGACAUTT against Fbxl13: the z-score was inactive: -0.561.

Consider GGAUAACAGAUGGUUAAUATT against Pramel48, for which the z-score was inactive: 0.202.

Take GGAGAUCCUGGGUACUGCATT against Rpl12: the z-score was inactive: 1.34.

For CGGACCUAUGCAAGAAGAUTT against Psapl1, the z-score was inactive: 0.102.

In the case of GCCUGUGCAAAAGAGAUUUTT against Gata3, the z-score was inactive: 1.93.

In the case of GGAACAAUGGGUUCAUUUUTT against Ifi203, the z-score was inactive: 0.136.

Regarding GGAAAGUUGCACUAUUAUCTT against Ide, the z-score was inactive: 1.44.

Consider GGGUUUCAAUAUGAUCAAATT against Catsperb, for which the z-score was inactive: 0.495.

Consider GCAUCCUUAGUGAUUUCUATT against Slc48a1, for which the z-score is inactive: 0.601.

Turning to GGCUCUUACAUGAAAUGAUTT against Copb1, the z-score was inactive: -0.933.

For GCAGAACCAACAUGGCCGUTT against Polr3b, the z-score is inactive: 0.799.

For the sequence GGCUGCUACCAAGAGUCAATT against Reep4, the z-score is inactive: -1.64.

As for GCUGUUCAUACCUAGUGGGTT against Sbno2, the z-score was inactive: -1.78.

Turning to GGUACUUACAAUUUCAUCATT against Rint1, the z-score was inactive: 0.253.

For GUUAUCUGGAUAUCCUAUATT against Olfr1469, the z-score is inactive: -0.732.

In the case of CCUGAUUAGCAGAGACUUGTT against Col23a1, the z-score is inactive: -0.265.

Consider GGGAGAACUUACAAAAAGATT against Wdcp, for which the z-score was inactive: -1.1.

As for GGCAAAAAGGACGUGAACCTT against Cblc, the z-score was inactive: 0.749.

With CGUGGUCAUCUGGUAUGAGTT against Zfp653, the z-score is active: 2.53.

Consider CCUAAAGGAAGGUUUCCAUTT against Cacng4, for which the z-score is inactive: 1.45.

In the case of GCAAUGUGUAUGGUAUCUUTT against Tas2r121, the z-score is inactive: -1.73.

Regarding GCUCAUAGAGACAAUUGCATT against Olfr822, the z-score is inactive: -0.501.

Consider GGAUUUGCUCACGGAACCATT against Olfr1230, for which the z-score was inactive: 0.472.

Consider GGACAACAAACUUUUCCUGTT against Ctsa, for which the z-score was inactive: 0.164.

As for GGCUCUCAAUGAUCAUCAUTT against Aldob, the z-score was inactive: -0.423.

Consider CGGUUGUGUGAGUAAAAUUTT against Pax6, for which the z-score was inactive: -0.169.

Turning to GGAAGUGCUGCACAUACUATT against Bnc2, the z-score was inactive: -0.525.

For GCAUUAGUGGACAUGUAUCTT against Slc6a13, the z-score is inactive: 0.744.

For the sequence GGAGCUGCUCAUGUAUUCCTT against Gnb2, the z-score is inactive: -1.91.

With GGAUUACAAAUGGAGAAAGTT against Ano4, the z-score was inactive: -0.411.

Regarding CCGGAAAGUUCGACAUUCCTT against Tmbim1, the z-score is inactive: 1.07.

Take GGUGGUCUACUUAGGUUUATT against Sc5d: the z-score was inactive: 0.63.

In the case of GGCUAAGUAGAACUUGUUATT against Pdcl2, the z-score is inactive: -0.644.

As to GGAAGUGUGAUGAAUGAUATT against Micu1, the z-score was inactive: 0.532.

For the sequence GCUUAAGUGGCAACCUAGATT against Zfp93, the z-score is inactive: -0.487.

As to GGAGAAGAAGUGCUUCCCUTT against Gls2, the z-score was active: -2.81.

Regarding GGAAAUACCCACCUUAUACTT against Efhc2, the z-score is active: 2.51.

Take “GCAUCGCAUUUAAAUAGAATT against 4833408A19Rik”: the z-score is inactive: 0.965.

As to GCUAGACUCAAUCAAGCAGTT against Papln, the z-score is inactive: -0.539.

Turning to GGAGAAUGAAAGUCAAGUUTT against Smn1, the z-score was inactive: -0.0605.

In the case of GACAGUAGCCUUCCUCAGGTT against Nr0b2, the z-score was inactive: 0.823.

GGAUACAAAGAGAGUUGUCTT against Eif3c: the z-score was inactive: 1.23.

Regarding GGUGUUGGAGACCAUGGAUTT against Clcn6, the z-score was inactive: 0.829.

As for GGCAAAUUUCACUUUCAUUTT against Aph1c, the z-score is inactive: -0.557.

Regarding CGGGAUCGUACUAAGCUGATT against Spdye4b, the z-score was inactive: 0.38.

Take “CGAGGGUCCUCGAAGACUATT against 3300002I08Rik”: the z-score was inactive: 1.19.

In the case of GCAGUGUAACUGGUAAAAUTT against Wdr92, the z-score was inactive: 0.476.

CCUACAUCCCUACCAUAGATT against Diras1: the z-score is inactive: -1.63.
